Assay results published in PubChem BioAssay AID1347165 (National Center for Advancing Translational Sciences (NCATS), 2019).
Hit rate of the full screen: of about 220,000 compounds, about 5,700 (2.6%) were called active. Only results without a clear call are listed here; the source files them as inconclusive. The call rests on the fitted dose curve; in most records, active means well fitted inhibition curve with a large enough effect; inconclusive means small, poorly fitted or top-dose-only effect; inactive means no such curve, though single readings can be large or run the other way.

The chains behind the UniProt entries cited, without tags or fusion partners.
UniProt Q9UGL1, whole entry: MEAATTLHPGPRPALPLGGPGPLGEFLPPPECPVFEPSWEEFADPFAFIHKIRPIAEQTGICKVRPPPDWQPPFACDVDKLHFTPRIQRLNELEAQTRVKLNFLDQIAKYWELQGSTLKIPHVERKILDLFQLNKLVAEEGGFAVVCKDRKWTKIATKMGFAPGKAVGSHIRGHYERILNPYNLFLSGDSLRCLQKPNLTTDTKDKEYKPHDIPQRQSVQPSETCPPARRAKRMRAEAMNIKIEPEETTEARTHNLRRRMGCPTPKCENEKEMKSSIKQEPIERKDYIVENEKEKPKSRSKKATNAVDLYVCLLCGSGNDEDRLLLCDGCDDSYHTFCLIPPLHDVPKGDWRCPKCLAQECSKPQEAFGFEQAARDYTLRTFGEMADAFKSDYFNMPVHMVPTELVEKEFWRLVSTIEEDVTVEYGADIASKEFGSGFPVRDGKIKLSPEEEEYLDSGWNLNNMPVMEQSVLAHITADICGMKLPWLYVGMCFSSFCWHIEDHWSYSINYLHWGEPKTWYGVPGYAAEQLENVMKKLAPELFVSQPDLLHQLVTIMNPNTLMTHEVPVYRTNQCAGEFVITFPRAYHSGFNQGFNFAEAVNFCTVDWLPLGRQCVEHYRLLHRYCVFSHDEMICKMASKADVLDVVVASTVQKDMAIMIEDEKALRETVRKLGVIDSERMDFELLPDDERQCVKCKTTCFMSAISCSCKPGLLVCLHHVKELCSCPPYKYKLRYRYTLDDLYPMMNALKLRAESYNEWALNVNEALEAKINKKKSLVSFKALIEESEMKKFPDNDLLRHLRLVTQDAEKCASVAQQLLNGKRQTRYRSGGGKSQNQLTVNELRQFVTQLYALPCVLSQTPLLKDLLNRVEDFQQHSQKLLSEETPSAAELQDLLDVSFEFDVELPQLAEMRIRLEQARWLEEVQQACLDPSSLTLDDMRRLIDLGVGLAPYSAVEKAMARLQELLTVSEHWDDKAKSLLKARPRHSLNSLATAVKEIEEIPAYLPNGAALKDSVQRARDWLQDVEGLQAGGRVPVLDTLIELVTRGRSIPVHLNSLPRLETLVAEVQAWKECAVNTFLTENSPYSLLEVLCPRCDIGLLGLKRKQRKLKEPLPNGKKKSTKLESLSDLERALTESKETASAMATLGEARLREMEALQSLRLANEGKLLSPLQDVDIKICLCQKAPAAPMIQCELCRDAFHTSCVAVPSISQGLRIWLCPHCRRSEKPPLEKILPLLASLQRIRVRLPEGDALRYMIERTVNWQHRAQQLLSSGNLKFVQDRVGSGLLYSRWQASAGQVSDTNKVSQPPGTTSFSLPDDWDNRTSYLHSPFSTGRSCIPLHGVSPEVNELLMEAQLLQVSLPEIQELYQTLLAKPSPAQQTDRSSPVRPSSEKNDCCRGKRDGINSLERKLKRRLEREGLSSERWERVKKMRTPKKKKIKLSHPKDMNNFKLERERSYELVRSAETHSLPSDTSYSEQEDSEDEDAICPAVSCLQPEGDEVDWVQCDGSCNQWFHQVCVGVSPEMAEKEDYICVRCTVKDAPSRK

What follows are compounds tested against Lysine-specific demethylase 5B (Homo sapiens) (UniProt Q9UGL1) (assay: Primary screen for KDM5B Histone Demethylases FDH-coupled qHTS). Details: FDH-coupled NADH fluorescence (FDH is formaldehyde dehydrogenase).
Source text: Assay Submitter (PI): Qin Yan, Ph.D. (Yale University) and Xiaodong Cheng, Ph.D. (MD Anderson) This project was funded as part of the NCI NEXT Program and Chemical Biology Consortium (CBC) The histone demethylases, KDM5A and KDM5B catalyze the demethylation of lysine 4 on histone H3 (H3K4me3/2). They are overexpressed in a variety of cancers and have been implicated in cancer cell growth, metastasis, drug resistance, and tumor growth. KDM5A is amplified and overexpressed in breast and gastric cancer; and is translocated in leukemia. While KDM5B is highly expressed in human mammary tumors and breast cancer cell lines, but not in normal adult breast tissue. […]
Materials: 1536-well Black, solid bottom, medium binding assay plate is purchased from Greiner Bio-one. […] The assay plate is incubated for 10 min at room temperature followed by addition of 1uL substrate mix (buffer + 100uM ascorbic acid, 50uM ferrous ammonium sulfate, 12.5uM H3K4Me3, 25uM a-ketoglutarate, 0.25 mM NAD+, 0.25 U/mL formaldehyde dehydrogenase using the FRD yielding a total reaction volume of 4 uL. Initial fluorescence (Read1) is detected using the PerkinElmer ViewLux plate reader equipped with 340 nm excitation and 450 nm emission filters. The final fluorescence (Read2) signal is obtained after 30 min of room temperature incubation. Delta RFU is calculated (Read2 - Read1) and is used to generated dose response curves.
Further: nearly all actives have a fitted effect of over 70% in size.
Potency means the concentration at half of the fitted maximal effect.

| SMILES | Potency |
| --- | --- |
| CCOC(=O)C(CC)C1=NC(C)(C)Cc2ccccc21.O=[N+]([O-])c1cc([N+](=O)[O-])c(O)c([N+](=O)[O-])c1 (stereo unspecified) | inconclusive: 22.4 µM |
